Laboratory results from the supplement of paper PMC10849652.
The other results are listed elsewhere or left out.

By UniProt entry, the sequences of proteins in these tests, tags left out. Where a name states a change or a piece, a line headed by the entry shows the natural chain unless it says otherwise.
UniProt P60983, whole entry, looked up: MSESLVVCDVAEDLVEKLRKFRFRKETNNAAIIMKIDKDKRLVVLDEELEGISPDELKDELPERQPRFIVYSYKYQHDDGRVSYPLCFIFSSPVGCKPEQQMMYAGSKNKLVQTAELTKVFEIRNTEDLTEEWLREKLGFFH
UniProt Q9H9Y4: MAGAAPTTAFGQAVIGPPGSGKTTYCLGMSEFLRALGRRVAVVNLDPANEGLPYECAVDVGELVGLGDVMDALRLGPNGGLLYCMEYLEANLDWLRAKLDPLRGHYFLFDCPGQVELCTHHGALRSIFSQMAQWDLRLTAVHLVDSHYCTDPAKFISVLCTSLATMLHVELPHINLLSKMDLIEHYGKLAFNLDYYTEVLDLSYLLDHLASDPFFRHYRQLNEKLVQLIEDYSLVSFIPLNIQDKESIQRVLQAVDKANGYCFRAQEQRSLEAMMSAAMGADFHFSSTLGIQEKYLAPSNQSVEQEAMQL
UniProt Q9HC38: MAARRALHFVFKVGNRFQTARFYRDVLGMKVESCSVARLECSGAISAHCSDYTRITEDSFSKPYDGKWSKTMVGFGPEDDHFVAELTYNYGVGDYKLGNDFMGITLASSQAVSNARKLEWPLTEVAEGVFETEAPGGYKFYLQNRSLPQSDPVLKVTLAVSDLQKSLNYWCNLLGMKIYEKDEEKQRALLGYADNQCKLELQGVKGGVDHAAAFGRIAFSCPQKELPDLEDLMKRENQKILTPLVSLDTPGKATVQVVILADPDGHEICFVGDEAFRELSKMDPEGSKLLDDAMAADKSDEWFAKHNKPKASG
UniProt Q86SX6: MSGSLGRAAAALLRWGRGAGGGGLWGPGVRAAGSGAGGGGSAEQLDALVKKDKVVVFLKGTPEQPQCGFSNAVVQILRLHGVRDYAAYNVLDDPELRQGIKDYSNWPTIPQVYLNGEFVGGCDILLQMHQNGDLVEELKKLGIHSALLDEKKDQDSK
UniProt O95249: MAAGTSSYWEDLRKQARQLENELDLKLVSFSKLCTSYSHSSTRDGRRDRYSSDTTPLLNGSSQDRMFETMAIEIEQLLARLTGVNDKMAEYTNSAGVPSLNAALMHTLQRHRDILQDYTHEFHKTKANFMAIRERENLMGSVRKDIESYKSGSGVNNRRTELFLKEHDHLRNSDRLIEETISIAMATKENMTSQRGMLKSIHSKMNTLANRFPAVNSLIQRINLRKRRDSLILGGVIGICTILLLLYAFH
UniProt Q9UHW5, whole entry, looked up: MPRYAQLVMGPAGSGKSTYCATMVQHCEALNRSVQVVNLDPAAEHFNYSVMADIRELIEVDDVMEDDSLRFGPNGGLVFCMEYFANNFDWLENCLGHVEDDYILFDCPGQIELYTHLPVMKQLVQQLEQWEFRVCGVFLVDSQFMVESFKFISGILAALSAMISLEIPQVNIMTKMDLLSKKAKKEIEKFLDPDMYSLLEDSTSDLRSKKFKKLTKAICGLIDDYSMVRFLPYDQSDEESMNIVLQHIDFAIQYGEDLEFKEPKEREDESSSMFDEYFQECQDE
UniProt Q86WP2: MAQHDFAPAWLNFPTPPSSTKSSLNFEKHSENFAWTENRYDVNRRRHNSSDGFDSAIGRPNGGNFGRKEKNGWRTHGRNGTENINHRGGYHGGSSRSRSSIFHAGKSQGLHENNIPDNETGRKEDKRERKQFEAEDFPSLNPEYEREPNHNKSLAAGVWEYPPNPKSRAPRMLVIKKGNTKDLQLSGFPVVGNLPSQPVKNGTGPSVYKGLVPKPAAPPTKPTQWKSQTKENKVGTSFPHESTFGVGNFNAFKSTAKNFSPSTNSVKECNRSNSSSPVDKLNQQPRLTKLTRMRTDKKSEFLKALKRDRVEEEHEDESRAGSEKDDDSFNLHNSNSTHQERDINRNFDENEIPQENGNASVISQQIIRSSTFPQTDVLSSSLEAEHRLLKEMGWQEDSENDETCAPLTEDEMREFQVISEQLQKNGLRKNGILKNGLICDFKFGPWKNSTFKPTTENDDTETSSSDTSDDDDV
UniProt Q9NS18: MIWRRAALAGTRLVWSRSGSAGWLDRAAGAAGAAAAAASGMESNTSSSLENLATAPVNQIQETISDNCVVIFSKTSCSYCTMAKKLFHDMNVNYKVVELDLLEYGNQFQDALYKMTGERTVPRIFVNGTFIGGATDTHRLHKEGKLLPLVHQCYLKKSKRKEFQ
UniProt Q96IJ6: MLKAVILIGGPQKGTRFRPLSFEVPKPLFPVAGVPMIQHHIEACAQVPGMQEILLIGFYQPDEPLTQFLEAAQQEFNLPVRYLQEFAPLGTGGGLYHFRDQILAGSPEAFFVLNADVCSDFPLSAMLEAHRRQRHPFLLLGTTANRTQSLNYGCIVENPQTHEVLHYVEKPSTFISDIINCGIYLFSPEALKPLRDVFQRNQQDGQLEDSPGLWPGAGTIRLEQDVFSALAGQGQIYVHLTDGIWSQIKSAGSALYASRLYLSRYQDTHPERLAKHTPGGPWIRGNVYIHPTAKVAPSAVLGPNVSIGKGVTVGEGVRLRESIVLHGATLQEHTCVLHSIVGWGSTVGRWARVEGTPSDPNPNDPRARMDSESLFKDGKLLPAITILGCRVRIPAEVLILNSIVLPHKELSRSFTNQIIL
UniProt Q8IW92: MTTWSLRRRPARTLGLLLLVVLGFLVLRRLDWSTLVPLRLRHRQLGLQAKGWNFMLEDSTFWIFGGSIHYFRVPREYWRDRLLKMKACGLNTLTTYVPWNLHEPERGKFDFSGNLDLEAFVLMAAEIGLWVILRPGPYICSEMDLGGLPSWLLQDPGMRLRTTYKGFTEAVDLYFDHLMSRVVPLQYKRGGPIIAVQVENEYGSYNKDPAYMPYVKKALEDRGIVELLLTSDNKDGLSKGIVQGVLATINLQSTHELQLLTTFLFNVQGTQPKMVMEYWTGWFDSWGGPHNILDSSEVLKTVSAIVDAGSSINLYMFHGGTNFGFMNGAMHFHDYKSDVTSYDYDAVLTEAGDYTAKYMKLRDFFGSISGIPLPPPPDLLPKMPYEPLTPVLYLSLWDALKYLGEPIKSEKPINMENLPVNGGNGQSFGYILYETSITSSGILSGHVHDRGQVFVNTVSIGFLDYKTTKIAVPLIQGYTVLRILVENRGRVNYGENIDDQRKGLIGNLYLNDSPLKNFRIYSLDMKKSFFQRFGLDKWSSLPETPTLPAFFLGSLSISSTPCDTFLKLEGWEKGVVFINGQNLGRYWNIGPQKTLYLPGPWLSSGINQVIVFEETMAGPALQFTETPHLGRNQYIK
UniProt O60547: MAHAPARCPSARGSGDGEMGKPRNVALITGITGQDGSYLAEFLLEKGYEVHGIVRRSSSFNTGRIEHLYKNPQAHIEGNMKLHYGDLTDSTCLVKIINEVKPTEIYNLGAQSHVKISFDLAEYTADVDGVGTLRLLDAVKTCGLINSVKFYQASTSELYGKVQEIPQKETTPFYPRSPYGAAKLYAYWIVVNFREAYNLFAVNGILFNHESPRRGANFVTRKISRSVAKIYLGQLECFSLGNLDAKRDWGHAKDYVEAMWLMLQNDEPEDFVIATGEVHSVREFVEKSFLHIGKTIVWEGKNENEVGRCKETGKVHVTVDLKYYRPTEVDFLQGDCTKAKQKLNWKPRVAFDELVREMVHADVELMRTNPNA
UniProt Q08378: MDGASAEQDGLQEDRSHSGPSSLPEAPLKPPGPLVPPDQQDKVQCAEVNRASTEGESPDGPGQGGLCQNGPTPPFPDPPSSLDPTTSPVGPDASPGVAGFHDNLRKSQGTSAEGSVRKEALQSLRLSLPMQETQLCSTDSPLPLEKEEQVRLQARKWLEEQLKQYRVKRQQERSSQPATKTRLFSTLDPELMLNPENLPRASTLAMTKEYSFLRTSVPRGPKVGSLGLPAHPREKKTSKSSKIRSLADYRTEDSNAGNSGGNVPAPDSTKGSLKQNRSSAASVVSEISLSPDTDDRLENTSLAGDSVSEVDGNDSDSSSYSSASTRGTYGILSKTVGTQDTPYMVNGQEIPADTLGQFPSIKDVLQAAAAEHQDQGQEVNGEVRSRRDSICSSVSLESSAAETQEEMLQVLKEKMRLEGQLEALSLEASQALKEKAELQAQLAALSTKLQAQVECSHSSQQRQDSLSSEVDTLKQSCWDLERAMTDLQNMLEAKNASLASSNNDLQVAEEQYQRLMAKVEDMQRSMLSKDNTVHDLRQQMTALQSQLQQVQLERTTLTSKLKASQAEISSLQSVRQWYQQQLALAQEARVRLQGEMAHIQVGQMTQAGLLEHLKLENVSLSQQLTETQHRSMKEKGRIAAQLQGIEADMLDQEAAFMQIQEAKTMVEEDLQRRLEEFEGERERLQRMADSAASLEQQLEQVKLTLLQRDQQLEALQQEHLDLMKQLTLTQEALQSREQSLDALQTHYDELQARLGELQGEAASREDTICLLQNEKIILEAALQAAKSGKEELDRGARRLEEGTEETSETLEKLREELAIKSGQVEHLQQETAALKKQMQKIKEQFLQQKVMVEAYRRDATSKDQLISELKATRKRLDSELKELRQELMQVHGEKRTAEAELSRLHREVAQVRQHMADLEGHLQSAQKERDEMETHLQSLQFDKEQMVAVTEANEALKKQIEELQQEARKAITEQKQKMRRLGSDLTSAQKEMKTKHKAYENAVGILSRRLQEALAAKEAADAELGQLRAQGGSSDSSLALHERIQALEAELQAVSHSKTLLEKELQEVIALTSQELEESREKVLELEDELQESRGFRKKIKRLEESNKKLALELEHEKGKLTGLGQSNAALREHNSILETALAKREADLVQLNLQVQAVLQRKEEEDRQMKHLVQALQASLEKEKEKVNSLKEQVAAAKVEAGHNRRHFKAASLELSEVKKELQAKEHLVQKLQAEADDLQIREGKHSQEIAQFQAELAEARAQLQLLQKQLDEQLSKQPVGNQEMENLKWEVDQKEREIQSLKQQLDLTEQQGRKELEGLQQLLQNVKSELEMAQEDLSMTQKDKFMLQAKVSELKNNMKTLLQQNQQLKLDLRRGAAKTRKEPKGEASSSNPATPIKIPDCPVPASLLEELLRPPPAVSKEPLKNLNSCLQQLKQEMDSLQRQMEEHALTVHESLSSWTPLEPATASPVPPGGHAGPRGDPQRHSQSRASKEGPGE
UniProt B7ZAQ6: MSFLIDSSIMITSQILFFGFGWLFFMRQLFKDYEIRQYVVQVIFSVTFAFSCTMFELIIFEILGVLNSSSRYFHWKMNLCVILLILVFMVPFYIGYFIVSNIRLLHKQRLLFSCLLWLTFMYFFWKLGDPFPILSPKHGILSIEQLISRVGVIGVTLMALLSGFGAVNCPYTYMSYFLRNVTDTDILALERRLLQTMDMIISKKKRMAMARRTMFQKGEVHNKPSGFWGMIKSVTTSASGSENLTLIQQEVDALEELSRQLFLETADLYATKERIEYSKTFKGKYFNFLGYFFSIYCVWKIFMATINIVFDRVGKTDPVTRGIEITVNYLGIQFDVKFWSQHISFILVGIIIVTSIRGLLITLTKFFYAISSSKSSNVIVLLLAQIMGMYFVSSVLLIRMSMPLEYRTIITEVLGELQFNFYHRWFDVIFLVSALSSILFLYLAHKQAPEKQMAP
UniProt O75496: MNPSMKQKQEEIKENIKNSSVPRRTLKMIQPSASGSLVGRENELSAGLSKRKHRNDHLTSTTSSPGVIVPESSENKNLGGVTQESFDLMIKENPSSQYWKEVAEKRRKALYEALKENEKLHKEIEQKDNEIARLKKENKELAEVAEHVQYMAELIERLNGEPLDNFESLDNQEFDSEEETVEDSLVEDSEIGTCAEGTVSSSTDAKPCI
UniProt P32189: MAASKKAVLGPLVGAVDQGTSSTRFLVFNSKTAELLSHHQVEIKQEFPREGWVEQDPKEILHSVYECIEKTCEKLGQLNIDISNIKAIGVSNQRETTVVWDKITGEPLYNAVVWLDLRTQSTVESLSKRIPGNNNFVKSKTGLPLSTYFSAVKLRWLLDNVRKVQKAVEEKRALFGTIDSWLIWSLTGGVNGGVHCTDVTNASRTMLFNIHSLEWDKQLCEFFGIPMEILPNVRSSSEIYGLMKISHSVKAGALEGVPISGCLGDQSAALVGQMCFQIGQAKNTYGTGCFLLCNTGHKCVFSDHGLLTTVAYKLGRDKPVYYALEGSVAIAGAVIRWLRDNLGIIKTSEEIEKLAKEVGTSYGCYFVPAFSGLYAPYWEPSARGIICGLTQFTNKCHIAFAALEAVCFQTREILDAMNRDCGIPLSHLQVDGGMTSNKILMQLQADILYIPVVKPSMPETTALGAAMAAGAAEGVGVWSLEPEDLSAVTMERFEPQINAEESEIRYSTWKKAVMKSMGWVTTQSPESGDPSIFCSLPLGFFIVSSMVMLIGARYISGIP
UniProt O75791: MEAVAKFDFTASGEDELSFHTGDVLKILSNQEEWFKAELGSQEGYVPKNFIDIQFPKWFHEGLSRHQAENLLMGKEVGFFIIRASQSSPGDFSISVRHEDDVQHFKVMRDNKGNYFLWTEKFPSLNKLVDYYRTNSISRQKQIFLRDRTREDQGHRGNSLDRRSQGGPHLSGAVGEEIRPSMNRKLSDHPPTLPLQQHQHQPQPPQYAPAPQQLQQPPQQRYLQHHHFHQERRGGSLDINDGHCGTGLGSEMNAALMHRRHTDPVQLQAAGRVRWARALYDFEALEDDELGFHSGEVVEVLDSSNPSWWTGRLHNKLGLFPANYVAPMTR

Assays:
Assay in all cases: log2 fold change, soluble protein after heating vs DMSO (PISA); higher = thermal stabilisation; K562 cells, 10 uM, 30 min; active = over 0.2 and 3.5 SD of the protein, either way, in both replicates (recomputed)
saracatinib = compound: CN1CCN(CCOc2cc(OC3CCOCC3)c3c(Nc4c(Cl)ccc5c4OCO5)ncnc3c2)CC1 [saracatinib]
How it was run: (§1)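 For each measurement, 10 μM compound was applied for 30 min to K562 cells at 2×10^6 cells/mL. Aliquots were heated for 3 min across 48°C-58°C, pooled, and extracted in PBS with 0.5% NP-40 at 4°C; the supernatant after 21,000xg for 90 min was soluble protein. This was quantified by TMTpro 16plex LC-MS/MS with channel sums equalised, and thermal stability was reported relative to control samples from duplicates, on a log2 fold-change scale.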

sotrastaurin = compound: CN1CCN(c2nc(C3=C(c4c[nH]c5ccccc45)C(=O)NC3=O)c3ccccc3n2)CC1 [sotrastaurin]
How it was run: as §1

alvocidib = compound: CN1CC[C@H](c2c(O)cc(O)c3c(=O)cc(-c4ccccc4Cl)oc23)[C@H](O)C1 [alvocidib]
How it was run: as §1

Tubastatin A = compound: CN1CCc2c(c3ccccc3n2Cc2ccc(C(=O)NO)cc2)C1 [Tubastatin A]
How it was run: as §1

[1] = compound: CNC(=O)C1=CC=CC=C1NC2=NC(=NC=C2Cl)NC3=C(C=C(C=C3)N4CCOCC4)OC
How it was run: as §1

defactinib = compound: CNC(=O)c1ccc(Nc2ncc(C(F)(F)F)c(NCc3nccnc3N(C)S(C)(=O)=O)n2)cc1 [defactinib]
How it was run: as §1

rucaparib = compound: CNCc1ccc(-c2[nH]c3cc(F)cc4c3c2CCNC4=O)cc1 [rucaparib]
How it was run: as §1

[2] = compound: CNc1nc(-c2ccc3c(N)n[nH]c3c2)cc(N2C[C@@H](C(=O)NC3CCCCC3)CC[C@H]2C)n1
How it was run: as §1

encorafenib = compound: COC(=O)N[C@@H](C)CNc1nccc(-c2cn(C(C)C)nc2-c2cc(Cl)cc(NS(C)(=O)=O)c2F)n1 [encorafenib]
How it was run: as §1

[3] = compound: COC(=O)[C@H](CCSC)NC(=O)C1=C(C=C(C=C1)NC[C@H](CS)N)C2=CC=CC=C2
How it was run: as §1

[4] = compound: COC1=CC=C(C=C1)CN2C=CC3=C2C=C(C=C3)C(=O)NO
How it was run: as §1

filanesib = compound: CON(C)C(=O)N1N=C(c2cc(F)ccc2F)S[C@@]1(CCCN)c1ccccc1 [filanesib]
How it was run: as §1

zotarolimus = compound: CO[C@H]1C[C@@H]2CC[C@@H](C)[C@@](O)(O2)C(=O)C(=O)N2CCCC[C@H]2C(=O)O[C@H]([C@H](C)C[C@@H]2CC[C@H](n3cnnn3)[C@H](OC)C2)CC(=O)[C@H](C)/C=C(\C)[C@@H](O)[C@@H](OC)C(=O)[C@H](C)C[C@H](C)/C=C/C=C/C=C/1C [zotarolimus]
How it was run: as §1

idasanutlin = compound: COc1cc(C(=O)O)ccc1NC(=O)[C@@H]1N[C@@H](CC(C)(C)C)[C@](C#N)(c2ccc(Cl)cc2F)[C@H]1c1cccc(Cl)c1F [idasanutlin]
How it was run: as §1

alisertib = compound: COc1cc(Nc2ncc3c(n2)-c2ccc(Cl)cc2C(c2c(F)cccc2OC)=NC3)ccc1C(=O)O [alisertib]
How it was run: as §1

[5] = compound: COc1cc2nc(-c3cc(F)ccc3O)nc(N[C@@H]3CNC[C@H]3C(C)(C)O)c2cc1OC
How it was run: as §1

gefitinib = compound: COc1cc2ncnc(Nc3ccc(F)c(Cl)c3)c2cc1OCCCN1CCOCC1 [gefitinib]
How it was run: as §1

[6] = compound: COc1cccc2cc(-c3nc([C@H]4CC[C@H](C(=O)O)CC4)n4ncnc(N)c34)[nH]c12
How it was run: as §1

lapatinib = compound: CS(=O)(=O)CCNCc1ccc(-c2ccc3ncnc(Nc4ccc(OCc5cccc(F)c5)c(Cl)c4)c3c2)o1 [lapatinib]
How it was run: as §1

pictilisib = compound: CS(=O)(=O)N1CCN(Cc2cc3nc(-c4cccc5[nH]ncc45)nc(N4CCOCC4)c3s2)CC1 [pictilisib]
How it was run: as §1

Measured: log2 fold change

GMFB (UniProt P60983)
inactive: saracatinib 0.035 | sotrastaurin 0.003 | alvocidib -0.019 | Tubastatin A -0.039 | [1] -0.005 | defactinib -0.034 | rucaparib -0.045 | [2] -0.001 | encorafenib 0.013 | [3] -0.016 | [4] -0.001 | filanesib -0.038 | zotarolimus 0.045 | idasanutlin -0.043 | alisertib -0.08 | [5] -0.011 | gefitinib 0 | [6] 0.067 | lapatinib -0.003 | pictilisib -0.032

GPN2 (UniProt Q9H9Y4)
inactive: saracatinib 0.01 | sotrastaurin 0.009 | alvocidib 0.026 | Tubastatin A -0.08 | [1] -0.005 | defactinib 0.027 | rucaparib 0.04 | [2] -0.01 | encorafenib -0.049 | [3] -0.055 | [4] -0.193 | filanesib 0.022 | zotarolimus -0.054 | idasanutlin 0.027 | alisertib -0.045 | [5] -0.045 | gefitinib -0.056 | [6] 0.039 | lapatinib 0.033 | pictilisib 0.119

GLOD4 isoform 2 (UniProt Q9HC38)
inactive: saracatinib -0.004 | sotrastaurin -0.01 | alvocidib -0.108 | Tubastatin A -0.017 | [1] 0.046 | defactinib -0.082 | rucaparib -0.071 | [2] 0.003 | encorafenib 0.008 | [3] 0 | [4] -0.002 | filanesib -0.089 | zotarolimus 0.038 | idasanutlin -0.071 | alisertib -0.006 | [5] 0.027 | gefitinib 0.023 | [6] 0.012 | lapatinib -0.002 | pictilisib 0.009

GLRX5 (UniProt Q86SX6)
inactive: saracatinib -0.029 | sotrastaurin 0.041 | alvocidib -0.013 | Tubastatin A 0.078 | [1] 0.007 | defactinib -0.027 | rucaparib -0.053 | [2] 0.068 | encorafenib 0.048 | [3] -0.045 | [4] 0.027 | filanesib 0.011 | zotarolimus 0.004 | idasanutlin 0.015 | alisertib -0.034 | [5] -0.117 | gefitinib 0.053 | [6] 0.12 | lapatinib -0.019

GOSR1 (UniProt O95249)
inactive: saracatinib 0.016 | sotrastaurin -0.036 | alvocidib -0.019 | Tubastatin A -0.025 | [1] -0.026 | defactinib -0.038 | rucaparib -0.101 | [2] -0.037 | encorafenib 0.023 | [3] 0.094 | [4] -0.04 | filanesib -0.057 | zotarolimus -0.018 | idasanutlin 0.026 | alisertib -0.08 | [5] -0.162 | gefitinib 0.006 | [6] 0.058 | lapatinib -0.037 | pictilisib 0.033

GPN3 isoform 2 (UniProt Q9UHW5)
inactive: saracatinib 0.057 | sotrastaurin 0.025 | alvocidib 0.085 | Tubastatin A -0.024 | [1] -0.065 | defactinib 0.023 | rucaparib -0.055 | [2] 0.012 | encorafenib -0.029 | [3] -0.004 | [4] 0.034 | filanesib 0.061 | zotarolimus -0.048 | idasanutlin -0.062 | alisertib -0.023 | [5] -0.086 | gefitinib -0.053 | [6] 0.052 | lapatinib -0.027 | pictilisib 0.013

GPBP1 isoform 2 (UniProt Q86WP2)
inactive: saracatinib 0.066 | sotrastaurin -0.011 | alvocidib 0.025 | Tubastatin A 0.025 | [1] 0.032 | defactinib 0.004 | rucaparib -0.001 | [2] -0.002 | encorafenib -0.14 | [3] 0.145 | [4] -0.009 | filanesib -0.01 | zotarolimus -0.093 | idasanutlin 0.098 | alisertib -0.097 | [5] -0.084 | gefitinib 0.03 | [6] -0.048 | lapatinib 0.027 | pictilisib -0.045

GLRX2 isoform 2 (UniProt Q9NS18)
inactive: saracatinib 0.038 | sotrastaurin -0.008 | alvocidib -0.022 | Tubastatin A -0.113 | [1] 0.041 | defactinib 0.023 | rucaparib 0.102 | [2] -0.121 | encorafenib -0.074 | [3] 0.047 | [4] 0.064 | filanesib 0.016 | zotarolimus 0.051 | idasanutlin -0.007 | alisertib -0.232 | [5] -0.057 | gefitinib 0.02 | [6] 0.036 | lapatinib -0.048 | pictilisib 0.066

GMPPA (UniProt Q96IJ6)
inactive: saracatinib 0.016 | sotrastaurin -0.004 | alvocidib -0.014 | Tubastatin A 0.01 | [1] -0.093 | defactinib -0.014 | rucaparib 0.056 | [2] -0.003 | encorafenib -0.031 | [3] -0.018 | [4] -0.007 | filanesib -0.059 | zotarolimus 0.013 | idasanutlin -0.016 | alisertib 0.002 | [5] 0.022 | gefitinib 0.005 | [6] 0.067 | lapatinib 0.013 | pictilisib 0.03

GLB1L2 (UniProt Q8IW92)
inactive: saracatinib 0.055 | sotrastaurin -0.008 | alvocidib 0.026 | Tubastatin A -0.021 | [1] 0.082 | defactinib -0.05 | rucaparib 0.062 | [2] -0.044 | encorafenib 0.027 | [3] 0.002 | [4] 0.047 | filanesib 0.036 | zotarolimus -0.197 | idasanutlin -0.04 | alisertib -0.016 | [5] 0.038 | gefitinib -0.078 | [6] -0.046 | lapatinib -0.025 | pictilisib 0.134

GMDS (UniProt O60547)
inactive: saracatinib 0.032 | sotrastaurin 0.07 | alvocidib -0.005 | Tubastatin A -0.027 | [1] -0.055 | defactinib -0.018 | rucaparib -0.026 | [2] -0.021 | encorafenib -0.007 | [3] -0.008 | [4] 0.014 | filanesib -0.021 | zotarolimus 0.015 | idasanutlin -0.057 | alisertib -0.046 | [5] 0.044 | gefitinib 0.003 | [6] 0.095 | lapatinib -0.034 | pictilisib 0.058

GOLGA3 (UniProt Q08378)
inactive: saracatinib 0.001 | sotrastaurin -0.026 | alvocidib -0.05 | Tubastatin A -0.018 | [1] 0.028 | defactinib -0.021 | rucaparib 0.012 | [2] -0.052 | encorafenib -0.029 | [3] -0.011 | [4] 0.025 | filanesib -0.013 | zotarolimus 0.031 | idasanutlin -0.04 | alisertib 0.037 | [5] -0.032 | gefitinib 0.014 | [6] -0.038 | lapatinib 0.025 | pictilisib 0.032

GPR89A (UniProt B7ZAQ6)
inactive: saracatinib 0.069 | sotrastaurin -0.035 | alvocidib 0.009 | Tubastatin A -0.036 | [1] 0.012 | defactinib -0.029 | rucaparib -0.016 | [2] -0.009 | encorafenib 0.087 | [3] -0.083 | [4] 0.086 | filanesib -0.054 | zotarolimus -0.037 | idasanutlin -0.107 | alisertib 0.014 | [5] -0.03 | gefitinib 0.015 | [6] 0.076 | lapatinib 0.006 | pictilisib 0.078

GMNN (UniProt O75496)
inactive: saracatinib 0.014 | sotrastaurin 0.045 | alvocidib -0.046 | Tubastatin A 0.018 | [1] -0.028 | defactinib -0.001 | rucaparib -0.043 | [2] -0.006 | encorafenib -0.021 | [3] 0.03 | [4] 0.001 | filanesib 0.014 | zotarolimus -0.017 | idasanutlin -0.067 | alisertib -0.056 | [5] 0.009 | gefitinib 0 | [6] 0 | lapatinib -0.003 | pictilisib 0.023

GK (UniProt P32189)
inactive: saracatinib 0.067 | sotrastaurin 0.049 | alvocidib 0.018 | Tubastatin A -0.007 | [1] -0.012 | defactinib -0.003 | rucaparib -0.03 | [2] -0.025 | encorafenib -0.012 | [3] 0.014 | [4] 0 | filanesib -0.036 | zotarolimus -0.034 | idasanutlin -0.018 | alisertib -0.018 | [5] 0.028 | gefitinib 0.01 | [6] 0.077 | lapatinib -0.01 | pictilisib 0.009

GRAP2 (UniProt O75791)
inactive: saracatinib -0.097 | sotrastaurin -0.141 | alvocidib -0.083 | Tubastatin A 0.109 | [1] 0.083 | defactinib -0.149 | rucaparib 0.085 | [2] 0.046 | encorafenib 0.097 | [3] -0.045 | [4] 0.111 | filanesib 0.175 | zotarolimus -0.055 | idasanutlin 0.006 | alisertib 0.023 | [5] 0.021 | gefitinib 0.152 | [6] -0.086 | lapatinib 0.034 | pictilisib 0.041

Taken from the entries so far (2 entries):
GOLGA3 (UniProt Q08378)
inactive: saracatinib 0.001 | sotrastaurin -0.026 | alvocidib -0.05 | Tubastatin A -0.018 | [1] 0.028 | defactinib -0.021 | rucaparib 0.012 | [2] -0.052 | encorafenib -0.029 | [3] -0.011 | [4] 0.025 | filanesib -0.013 | zotarolimus 0.031 | idasanutlin -0.04 | alisertib 0.037 | [5] -0.032 | gefitinib 0.014 | [6] -0.038 | lapatinib 0.025 | pictilisib 0.032

GPR89A (UniProt B7ZAQ6)
inactive: saracatinib 0.069 | sotrastaurin -0.035 | alvocidib 0.009 | Tubastatin A -0.036 | [1] 0.012 | defactinib -0.029 | rucaparib -0.016 | [2] -0.009 | encorafenib 0.087 | [3] -0.083 | [4] 0.086 | filanesib -0.054 | zotarolimus -0.037 | idasanutlin -0.107 | alisertib 0.014 | [5] -0.03 | gefitinib 0.015 | [6] 0.076 | lapatinib 0.006 | pictilisib 0.078
